{
  "source": "patent US8557847B2",
  "about": "“Synergistic modulation of FLT3 kinase using a FLT3 inhibitor and a farnesyl transferase inhibitor” (Janssen Pharmaceutica, N.V., priority 2005, dated 2013)",
  "key": {"[1]": {"tested_on": "MV4-11 AML cells", "assay": "72-hour cell proliferation assay, single agents and FTI/FLT3 inhibitor combinations, MV4-11", "assay_type": "cell-based, human", "details": "single agent, depending on the cell type", "experimental": "Dose responses for the individual compounds alone were determined for each cell line using a standard 72-hour cell proliferation assay (see FIGS. 6.1-6.8). The standard chemotherapeutic agent Cytarabine was used as a control cytotoxic agent in all experiments. […] The FLT3 inhibitors, Compounds A, B, C, D, E, F G and H, individually have good potency (sub-micromolar) for the inhibition of FLT3 driven proliferation (compared to the first line cytotoxic agent Cytarabine and Tipifarnib) in cells that depend on FLT3 for growth. Each of these chemically distinct compounds alone has potential for the treatment of disorders related to FLT3, such as FLT3 positive AML. […]\nTo statistically evaluate the synergy of a FLT3 inhibitor and an FTI in FLT3 dependent cell lines, dosing combinations were evaluated by the method of Chou and Talalay. See Chou T C, Talalay P. (1984) “Quantitative analysis of dose-effect relationships: the combined effects of multiple drugs or enzyme inhibitors.” Adv Enzyme Regul. […] Using this method, multiple FTI and FLT3 combinations were evaluated. […]\nCell proliferation assay for MV4-11, Baf3-ITD, Baf3-FLT3 and THP-1 cells. […] Total cell growth is quantified as the difference in luminescent counts (relative light units, RLU) of cell number at Day 0 compared to total cell number at Day 3 (72 hours of growth and/or compound treatment). […]"}, "[2]": {"tested_on": "MV4-11 cells", "assay": "Annexin V staining (apoptosis) of MV4-11 cells", "assay_type": "cell-based, human", "details": "fixed ratio 4:1 combination of Tipifarnib and Compound A vs agent alone, 48 hours"}, "[3]": {"tested_on": "MV-4-11 tumor xenografts", "assay": "MV-4-11 tumor xenografts, FLT3 inhibitor Compound B administered with Tipifarnib", "assay_type": "in vivo, nude mice", "details": "Tipifarnib 50 mg/kg alone, Day 9"}, "[4]": {"tested_on": "MV-4-11 tumor xenografts", "assay": "MV-4-11 tumor xenografts, FLT3 inhibitor Compound D administered with Tipifarnib", "assay_type": "in vivo, nude mice", "details": "Tipifarnib 50 mg/kg single agent"}, "[5]": {"tested_on": "patients with relapsed and refractory AML", "details": "cited from earlier work"}},
  "note": "At least one structure is not confirmed: it was looked up by name or label, or the drawing left a doubt.",
  "data": [
    {"smiles": "Cn1cncc1[C@@](N)(c1ccc(Cl)cc1)c1ccc2c(c1)c(-c1cccc(Cl)c1)cc(=O)n2C", "note": "(single isomer, unassigned) [Tipifarnib, reference compound]", "values": [
      {"measurement": "potency range", "setting": "[1]", "value": "high nanomolar to high picomolar range"},
      {"measurement": "shift of EC50 for the induction of annexin V staining", "setting": "[2]", "value": "more than eight-fold"},
      {"measurement": "tumor volume compared to control", "setting": "[3]", "value": "not significantly reduced"},
      {"measurement": "effect on tumor growth", "setting": "[4]", "value": "ineffective"},
      {"measurement": "patients achieving complete remission", "setting": "[5]", "value": 2, "unit": "patients"}
    ]}
  ]
}
